Results published in PMC9176654.
No constants are given. Whether binding was seen depends on the method and setting. In cells and extracts the contact can be indirect. These calls come from enrichment with a bait or labelling near it, and not all partners need be listed.

Amino acid sequences for entries named in this document (tags omitted).
UniProt P0DTC3: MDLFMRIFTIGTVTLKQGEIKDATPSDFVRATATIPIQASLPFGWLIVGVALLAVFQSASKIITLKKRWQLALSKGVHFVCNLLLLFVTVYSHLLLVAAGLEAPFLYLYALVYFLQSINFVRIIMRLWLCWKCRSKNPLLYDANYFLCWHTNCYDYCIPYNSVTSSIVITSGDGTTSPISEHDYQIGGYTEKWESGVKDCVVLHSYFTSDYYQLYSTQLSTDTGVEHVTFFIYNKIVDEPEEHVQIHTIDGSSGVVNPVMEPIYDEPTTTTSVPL

Molecular target: SARS-CoV-2 accessory protein ORF3a (SARS-CoV-2) (UniProt P0DTC3)
Assay: two-hybrid + affinity purification with mass spectrometry

B1: ZNF579 (protein, UniProt Q8NAF0 1-562)
chain: MDPQPPPPAQGSPPHRGRGRGRGRGRGRGRGRGRGGAGAPRAPLPCPTCGRLFRFPYYLSRHRLSHSGLRPHACPLCPKAFRRPAHLSRHLRGHGPQPPLRCAACPRTFPEPAQLRRHLAQEHAGGEVELAIERVAKETAEPSWGPQDEGSEPPTTAAAGATEEEAVAAWPETWPAGEPSTLAAPTSAAEPRESESEEAEAGAAELRAELALAAGRQEEKQVLLQADWTLLCLRCREAFATKGELKAHPCLRPEGEQEGEGGPPPRPKRHQCSICLKAFARPWSLSRHRLVHSTDRPFVCPDCGLAFRLASYLRQHRRVHGPLSLLAPLPAAGKKDDKASGARNSAKGPEGGEGAECGGASEGGEGQNGGDAAPARPPAGEPRFWCPECGKGFRRRAHLRQHGVTHSGARPFQCVRCQREFKRLADLARHAQVHAGGPAPHPCPRCPRRFSRAYSLLRHQRCHRAELERAAALQALQAQAPTSPPPPPPPLKAEQEEEGLPLPLANIKEEPPSPGTPPQSPPAPPVFLSASCFDSQDHSAFEMEEEEVDSKAHLRGLGGLAS
- binding: binds
